Construct, isoform or probe ends are uncertain for at least one entry. Where a protein sequence is shown, tags need not be part of it.
Legend:
[1] = target: T1, RAX1myb-6H (Arabidopsis thaliana) (UniProt Q9FG68); test: EMSA
T1 sequence (looked up, limits assumed): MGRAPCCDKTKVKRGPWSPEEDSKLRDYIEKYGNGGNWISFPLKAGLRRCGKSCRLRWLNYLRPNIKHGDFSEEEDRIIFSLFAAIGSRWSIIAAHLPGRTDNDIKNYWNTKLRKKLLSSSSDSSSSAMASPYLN

[2] = target: T2, RAX1full-MBP-6H (Arabidopsis thaliana) (UniProt Q9FG68); test: EMSA; details: residues 1-329
T2 sequence (looked up): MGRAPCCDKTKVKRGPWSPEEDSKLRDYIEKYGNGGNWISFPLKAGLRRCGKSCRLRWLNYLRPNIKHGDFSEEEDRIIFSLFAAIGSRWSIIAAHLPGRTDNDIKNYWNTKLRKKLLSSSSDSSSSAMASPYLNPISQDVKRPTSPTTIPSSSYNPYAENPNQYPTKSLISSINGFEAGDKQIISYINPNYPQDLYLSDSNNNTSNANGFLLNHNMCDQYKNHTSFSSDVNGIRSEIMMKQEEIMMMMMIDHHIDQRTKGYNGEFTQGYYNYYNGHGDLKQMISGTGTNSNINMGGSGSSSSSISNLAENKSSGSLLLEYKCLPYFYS

Row | Sequence | binding result [1] | binding result [2]
1 | GTTGGGTACCTAACCTTCTAA (double strand) [RAX1bs] | binds | binds
2 | GTTGGGTACCTAACTTTCTAA (double strand) [CLV1-bs1] | binds | binds

Source: publication doi:10.1101/488114
